In patent US20080249077A1, “17.Beta.-Fluoromethoxycarbonyl-Androst-4-En-3-One Compounds With a 17.Alpha.-Carbonate Sustituent” (priority 2005, published 2008):
Some results were stated once for a whole list of compounds, not compound by compound.

Molecular target: T1, glucocorticoid receptor (Homo sapiens, UniProt P04150)
T1 construct: A549 cells stably transfected with a reporter gene; endogenous in cells; host or cells: A549 cells
T1 sequence (P04150 1-777): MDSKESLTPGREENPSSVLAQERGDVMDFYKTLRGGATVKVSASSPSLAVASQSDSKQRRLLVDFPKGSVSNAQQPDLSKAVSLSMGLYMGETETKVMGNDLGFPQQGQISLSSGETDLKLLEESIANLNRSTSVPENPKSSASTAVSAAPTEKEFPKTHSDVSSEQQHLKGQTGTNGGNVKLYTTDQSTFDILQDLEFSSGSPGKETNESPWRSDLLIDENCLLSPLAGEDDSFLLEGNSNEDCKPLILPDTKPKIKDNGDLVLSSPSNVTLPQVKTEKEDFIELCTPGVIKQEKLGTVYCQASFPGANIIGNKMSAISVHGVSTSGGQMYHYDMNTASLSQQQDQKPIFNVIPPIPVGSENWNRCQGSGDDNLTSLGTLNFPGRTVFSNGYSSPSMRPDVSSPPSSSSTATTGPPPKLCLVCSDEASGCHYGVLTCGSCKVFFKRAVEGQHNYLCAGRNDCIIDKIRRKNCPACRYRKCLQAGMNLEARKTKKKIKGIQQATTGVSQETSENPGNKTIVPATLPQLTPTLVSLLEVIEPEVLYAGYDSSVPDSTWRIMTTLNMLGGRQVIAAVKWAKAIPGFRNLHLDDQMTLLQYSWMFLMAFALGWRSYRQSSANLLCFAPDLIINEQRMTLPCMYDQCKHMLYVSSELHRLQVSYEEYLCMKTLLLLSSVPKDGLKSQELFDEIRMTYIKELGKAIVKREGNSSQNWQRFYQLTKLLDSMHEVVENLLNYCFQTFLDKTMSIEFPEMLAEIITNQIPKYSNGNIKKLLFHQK
Test: Assay for transrepression activity of the glucocorticoid agonists (NF-κB responsive ELAM promoter-sPAP reporter, TNF-stimulated A549 cells)
Type: cell-based
Details: compound 1 hour at 37° C., then TNF 10 ng/ml for 16 hours
Procedure: Assay for Transrepression Activity of the Glucocorticoid Agonists
A549 cells stably transfected with a reporter gene containing the NF-κB responsive elements from the ELAM gene promoter coupled to sPAP (secreted alkaline phosphatase) are treated with test compounds at appropriate doses for 1 hour at 37° C. The cells are then stimulated with tumour necrosis factor (TNF, 10 ng/ml) for 16 hours, at which time the amount of alkaline phosphatase produced is measured by a standard colourimetric assay. Dose response curves were constructed from which EC50 values were estimated.

CCC(OC(=O)O[C@]1(C(=O)OCF)[C@H](C)C[C@H]2[C@@H]3C[C@H](F)C4=CC(=O)C=C[C@]4(C)[C@@]3(F)[C@@H](O)C[C@@]21C)C(C)(C)C (stereo partly drawn) [Example 38, Fluoromethyl(6α,11β,16α,17α)-17-({[(1-ethyl-2,2-dimethylpropyl)oxy]carbonyl}oxy)-6,9-difluoro-11-hydroxy-16-methyl-3-oxoandrosta-1,4-diene-17-carboxylate]
pIC50 (transrepression): > 8.0
